# Primary screen of a compound library

Protein sequences, listed by entry. Tags and fused reporters are not part of them.
UniProt E9BF75, entry or part of it: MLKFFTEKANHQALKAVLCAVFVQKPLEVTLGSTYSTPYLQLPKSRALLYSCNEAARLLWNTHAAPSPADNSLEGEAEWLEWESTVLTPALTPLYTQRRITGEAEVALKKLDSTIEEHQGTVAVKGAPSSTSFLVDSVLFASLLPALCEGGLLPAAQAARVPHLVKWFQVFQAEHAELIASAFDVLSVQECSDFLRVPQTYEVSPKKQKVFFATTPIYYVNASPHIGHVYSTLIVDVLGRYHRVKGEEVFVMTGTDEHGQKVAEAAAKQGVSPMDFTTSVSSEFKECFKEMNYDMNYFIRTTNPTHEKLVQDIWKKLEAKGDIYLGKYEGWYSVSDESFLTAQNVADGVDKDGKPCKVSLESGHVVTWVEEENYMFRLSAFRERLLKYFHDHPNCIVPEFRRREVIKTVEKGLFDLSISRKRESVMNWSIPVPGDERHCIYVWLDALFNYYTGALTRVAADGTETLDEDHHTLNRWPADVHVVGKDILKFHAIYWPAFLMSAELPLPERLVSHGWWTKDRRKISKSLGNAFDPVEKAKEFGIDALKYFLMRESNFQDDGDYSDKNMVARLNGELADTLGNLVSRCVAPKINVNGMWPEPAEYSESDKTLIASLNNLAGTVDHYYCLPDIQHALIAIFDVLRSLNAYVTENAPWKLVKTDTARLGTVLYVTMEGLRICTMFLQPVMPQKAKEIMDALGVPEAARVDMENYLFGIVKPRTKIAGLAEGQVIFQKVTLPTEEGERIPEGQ

Results are percentages, as filed. The controls that fix the scale are not given in the record; negative values are as filed. The compounds are a random part of those screened. A dash means the value is not listed here; it may have been measured.

Mtb heat-shock: 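Assay on Mycobacterium tuberculosis, filed only as a heat shock assay from Cornell; the read-out is not stated. The concentration is filed as 10 mM, unlikely as a test dose, so the dose is not known. Higher reads as stronger inhibition (inferred: compounds with an IC50 in retests scored well above the rest). About 69,000 compounds were tested under these conditions; 1.4% (about 930) showed 50% or more at least once.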
LdMetRS: 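Primary screen of methionyl-tRNA synthetase; the read-out is not stated. Target: Methionyl-tRNA synthetase (putative), Leishmania donovani (UniProt E9BF75). The test concentration is not given. Values are per cent inhibition. Of about 68,000 compounds tested this way, about 24 (0.035%) reached 50% or more in at least one test.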

| # | compound | Mtb heat-shock | LdMetRS |
|---|---|---|---|
| 1 | `COc1ccc(C)cc1Nc1nc2c(C)nn(C)c2c(=O)n1C` | 5.482% | 16.63% |
| 2 | `Cc1nnc([C@]23COC[C@H]2CN(Cc2cnn(C)c2)C3)o1` | - | 18.84% |
| 3 | `CCN1CCC(CC(=O)NCCc2nc(N)cc(O)n2)CC1` | -9.356% | 13.55% |
| 4 | `Cc1noc(C(C)N2CCN(c3ncnc4sccc34)CC2)n1` (stereo not drawn) | -34.64% | 15.03% |
| 5 | `CC(=O)N1CCC2(CCN(CC(C)C)C2)C1` (stereo not drawn) | 14.43% | 6.667% |
| 6 | `CCOC(=O)CC(C)Nc1nc(C(C)(C)C)nc2c1cnn2C` (stereo not drawn) | -14.25% | 1.389% |
| 7 | `[H][C@@]12CCN(S(C)(=O)=O)C[C@@]1([H])O[C@H](C(=O)N1CCOCC1)C2` | -5.492% | - |
| 8 | `CC1CCN(Cc2ccccc2CNC(=O)C2CNC(=O)N2)CC1` (stereo not drawn) | -28.83% | 12.57% |
| 9 | `COCCN1C[C@H]2CN(C(=O)NCc3ccccc3)CCN2C1=O` | - | -8.791% |
| 10 | `CCCNC(=O)CNc1ccc2c(c1)N(C(=O)OC(C)(C)C)CCC2` | -9.125% | 8.696% |
| 11 | `CCC1c2ccsc2CCN1C(=O)NCCc1ccccn1` (stereo not drawn) | 3.637% | 17.71% |
| 12 | `Cc1cc(C2CCCCN2C(=O)CN2CC3(CCNCC3)OC2=O)no1` (stereo not drawn) | 1.146% | 5.694% |
| 13 | `O=C(c1ccoc1)N1CCCC2(CCC(=O)N2Cc2cccnc2)C1` (stereo not drawn) | - | 14.88% |
| 14 | `Cc1ccc(-n2c(O)cc(C)c(C#N)c2=O)c(C)c1` | -0.08191% | 23.2% |
| 15 | `CCc1nc(C)c([C@H]2CN(C)C[C@@H]2C(=O)Nc2cccc3cn[nH]c23)[nH]1` | -3.416% | 11.61% |
| 16 | `COc1ccc2c(c1)OCC(Cc1ccc(CN)cn1)C2` (stereo not drawn) | -27.92% | 12.36% |
| 17 | `Cc1nn(C)c(C)c1C1CCCN1C(=O)CCCn1cccn1` (stereo not drawn) | -1.617% | 8.661% |
| 18 | `O=C1CN(C(=O)c2cc3ccc(Br)cc3[nH]2)CCN1` | 9.266% | 10.3% |
| 19 | `CCN(CC1CCOC1)C(=O)Nc1ccc(-n2cncn2)nc1` (stereo not drawn) | 22.96% | 12.27% |
| 20 | `[H][C@@]12CCCO[C@]1([H])[C@H](N1CCN(C)CC1)CN2C(=O)c1ccc(C)nc1` | 21.81% | - |
| 21 | `COc1cccc(CNC(=O)C(c2cccc(F)c2)N2CCOCC2)c1` (stereo not drawn) | -11.79% | 16.2% |
| 22 | `Cc1ccc(CN2CCCn3c(nc(Cn4ccnc4)cc3=O)C2)o1` | 1.259% | 4.899% |
| 23 | `O=S(=O)(Cc1ccc(F)cc1)NCc1nnc2n1CCC2` | 6.858% | 15.16% |
| 24 | `CC(C)c1nc(CN2CCCN(Cc3nccn3C)CC2)no1` | -21.41% | 7.225% |
| 25 | `COc1cccc(CC(=O)N2CCCC(c3nncn3C)C2)c1` (stereo not drawn) | -12.2% | 15.64% |
| 26 | `CN(CCc1ccccn1)C(=O)Nc1cccnc1N1CCCC1` | -9.129% | 6.587% |
| 27 | `Cn1cc(CN2CCOCC3(C2)CN(c2ccccc2)C(=O)CO3)cn1` (stereo not drawn) | - | 14.16% |
| 28 | `CNC(=O)C1CCC2(CCNCC2)C1` (stereo not drawn) | - | 13.33% |
| 29 | `COCc1c(C(=O)N2CCCC(C(=O)c3ccccc3)C2)noc1C` (stereo not drawn) | 11.03% | 9.42% |
| 30 | `COc1ccc(Cc2c(O)nc(SC)n(-c3ccccc3)c2=O)cc1` | -7.727% | -1.12% |
| 31 | `CC(=O)N1CCC(N2CC(Cc3nccc4ccn(C)c34)C2)CC1` | -19.67% | -37.54% |
| 32 | `c1ccc(CN2CC[C@@H]3[C@@H](CO[C@@H]3CNc3ncccn3)C2)nc1` | - | 3.014% |
| 33 | `Cc1occc1C(=O)N1C[C@@H]2CN(S(C)(=O)=O)CCO[C@@H]2C1` | - | 1.73% |
| 34 | `Cc1cccc(C)c1OC1CN(C(=O)C2CCN(C(=O)N(C)C)CC2)C1` | 2.845% | 13.94% |
| 35 | `O=C(CC1COCCN1S(=O)(=O)c1ccccc1)NCc1ccccn1` (stereo not drawn) | 1.109% | 11.17% |
| 36 | `Cc1ccc(C#N)c(N2CCC3(CCC(=O)N(CC(N)=O)C3)CC2)n1` | -9.879% | 8.824% |
| 37 | `O=C(Cc1cccc(Cl)c1)Nc1cnccc1SCCCO` | -17.9% | 6.069% |
| 38 | `CCCc1cc(=O)[nH]c2nnc(SCC(=O)OCC)n12` | -12.33% | 4.545% |
| 39 | `COCC1c2nnn(C)c2CCN1C(=O)Cc1ccc2c(c1)OCO2` (stereo not drawn) | -7.861% | -0.7519% |
| 40 | `Cc1nn(C)c(N(C)C)c1CNC1CCc2cc(F)ccc21` (stereo not drawn) | - | 18.58% |
| 41 | `OC(CNCCn1cccn1)COc1ccc2ccccc2c1` (stereo not drawn) | 3.556% | 16.67% |
| 42 | `COC(=O)c1ccc(CN[C@@H]2COC[C@H]2Cc2cc(C)no2)cc1.O=C(O)CC(O)(CC(=O)O)C(=O)O` | -21.34% | - |
| 43 | `Cc1nc(N2CCOCC2)nc2c1CCN(Cc1nccn1C)CC2.O=C(O)C(F)(F)F` | -4.986% | - |
| 44 | `COc1ccccc1OCCc1nnc(NC(=O)C2CC23CCC3)s1` (stereo not drawn) | -13.49% | 5.233% |
| 45 | `COc1ccccc1CNC(=O)Cn1nc(-c2ccc(F)cc2)oc1=O` | -15.86% | 3.279% |
| 46 | `CN(C)[C@H]1C[C@@H](Cc2cc(CO)on2)C1(C)C` | -14.01% | 6.767% |
| 47 | `COc1ccccc1OC1CCN(c2nccc(N)n2)CC1` | -15.37% | 7.368% |
| 48 | `Cc1cccc(CNC(Cc2ccsc2)c2nccs2)n1` (stereo not drawn) | 101.9% | 23.42% |
| 49 | `CC(C)(C)c1cc(CNC(=O)c2cc(COc3ccccc3)[nH]n2)[nH]n1` | 25.82% | 10.36% |
| 50 | `CNC(=O)N1CC[C@@H]2CN(CCc3cccc(OC)c3)S(=O)(=O)[C@@H]2CC1` | - | 15.57% |
| 51 | `O=C(O)C(F)(F)F.[H][C@]12CCC[C@@]1(COCc1cccnc1)CN(S(=O)(=O)N(C)C)C2` | -11.14% | - |
| 52 | `CC(C(=O)NCc1ccc(-n2cncn2)nc1)n1ccnc1` (stereo not drawn) | 6.643% | 9.722% |
| 53 | `Cc1cc(C)n(C2CCCN(C(=O)CN(C)c3cnccn3)C2)n1` (stereo not drawn) | 9.146% | 17.02% |
| 54 | `COc1cc(N2CC[C@@H]3O[C@@H](c4ccncn4)C[C@H]3C2)ncn1` | - | 1.045% |
| 55 | `CCc1nc(-c2cncnc2C2CCCNC2)no1.Cl` (stereo not drawn) | 14.9% | - |
| 56 | `Cc1ccc(N2CC[C@@H]3O[C@@H](COCc4cccnc4)CC[C@@H]32)nn1` | - | 13.14% |
| 57 | `Cc1nn(C)c(N2CCOCC2)c1CNCc1ccc(Cl)s1` | -9.012% | 18.06% |
| 58 | `O=S1(=O)NCC2(CCN(c3ncccn3)CC2)COc2ccccc21` | - | 0.3623% |
| 59 | `Cc1ccc(NC2CCCN(Cc3ccc(Cl)cc3)C2)nn1` (stereo not drawn) | 8.704% | 21.49% |
| 60 | `c1cnn(CCN2CCOC(Cn3cncn3)C2)c1` (stereo not drawn) | 27.29% | 7.042% |
| 61 | `Cc1cc(CN(C)C(=O)CC(C)C)no1` | 0.07305% | 0.2793% |
| 62 | `Fc1ccc(OCc2nnc([C@H]3CCN(Cc4ccncc4)C3)o2)cc1` | 43.75% | 9.341% |
| 63 | `COc1ccc(-c2n[nH]c(C)c2CC(=O)NCC2CCOCC2)cc1` | 1.416% | 11.26% |
| 64 | `Cc1cnn(CC2CCCN2Cc2nnc(C3CC3)o2)c1` (stereo not drawn) | -23.35% | 11.67% |
| 65 | `[H][C@@]12CN(C(=O)C3CC=CC3)C[C@]1([H])C(=O)N(Cc1cccc(C)n1)C2` | -9.67% | - |
| 66 | `CN(Cc1ccc(F)cc1)[C@@H]1CN(C(=O)c2cccs2)C[C@H]1O` | -11.3% | 8.042% |
| 67 | `O=C(c1ccsc1)N1CCc2c(CNc3ncccn3)n[nH]c2C1` | 3.576% | 13.81% |
| 68 | `COc1ccc(-n2cc(CNC(=O)c3ccc[nH]3)nn2)cc1` | 10.59% | 11.86% |
| 69 | `CCc1ccc(-c2cn(CCSc3ncn[nH]3)nn2)nc1` | -28.2% | 0% |
| 70 | `CC1(C)CC(=O)c2cnc3nc(N4CCCC4)[nH]c(=O)c3c2C1` | -2.681% | 18.23% |
| 71 | `COc1ccc(Cl)cc1C(=O)N1CCCC(n2nc(C)nc2C)C1` (stereo not drawn) | -9.88% | 1.408% |
| 72 | `Cc1noc(C)c1S(=O)(=O)N1CCC(n2cccn2)CC1` | 8.52% | 13.69% |
| 73 | `Cc1nc(CN2CCCn3cnc(COC(C)C)c3C2)cs1` | - | 14.92% |
| 74 | `CC(C)N(CC(N)=O)C(=O)c1cc(F)ccc1N1CCN(C)CC1` | 5.614% | 3.523% |
| 75 | `COc1ccc(C)cc1C(C)NC(=O)NCCCn1cncn1` (stereo not drawn) | -0.5986% | 19.58% |
| 76 | `O=C(c1cnccn1)N1CCC(F)(F)C2(CCN(c3ccccn3)C2)C1` (stereo not drawn) | - | 13.48% |
| 77 | `CC(=O)NCCNC(=O)c1cccc(Cn2nc(C)cc2C)c1` | 8.735% | 17.28% |
| 78 | `CSCCNc1ccc(C(=O)N(C)Cc2ccc3ccccc3n2)cn1` | -24.6% | 7.463% |
| 79 | `O=C(NCCNc1ncccn1)C1CC(=O)N(C2CCCC2)C1` (stereo not drawn) | -4.665% | 15.03% |
| 80 | `COc1ccc(CN2C[C@@H]3CN(Cc4ccncc4)C[C@@H]3C2=O)cc1` | - | 6.667% |
| 81 | `Cc1cn2c(n1)CCC(NC(=O)c1cnc(C)nc1C(C)C)C2` (stereo not drawn) | -5.433% | 18.06% |
| 82 | `CC(NC(=O)CCCOc1ccc(F)cc1)c1nnc2n1CCC2` (stereo not drawn) | -27.37% | 17.48% |

The last 5 entries again:

{"compound": "CSCCNc1ccc(C(=O)N(C)Cc2ccc3ccccc3n2)cn1", "Mtb heat-shock": -24.6, "LdMetRS": 7.463}
{"compound": "O=C(NCCNc1ncccn1)C1CC(=O)N(C2CCCC2)C1", "stereo": "stereo not drawn", "Mtb heat-shock": -4.665, "LdMetRS": 15.03}
{"compound": "COc1ccc(CN2C[C@@H]3CN(Cc4ccncc4)C[C@@H]3C2=O)cc1", "LdMetRS": 6.667}
{"compound": "Cc1cn2c(n1)CCC(NC(=O)c1cnc(C)nc1C(C)C)C2", "stereo": "stereo not drawn", "Mtb heat-shock": -5.433, "LdMetRS": 18.06}
{"compound": "CC(NC(=O)CCCOc1ccc(F)cc1)c1nnc2n1CCC2", "stereo": "stereo not drawn", "Mtb heat-shock": -27.37, "LdMetRS": 17.48}

The values are deposited in ChEMBL (CHEMBL3988442, “University of Dundee, Small-Polar-MMV Screening Library” (2021)).